PubChem BioAssay AID1259308 – NCATS | 2017

Purpose: 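Knock-downs that increase output of a recombinant reporter protein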 (primary screen)
Cell system: human HEK293 embryonic kidney cells stably expressing firefly luciferase (HEK-CMV-Luc2-Hygro)
Reagent: single siRNA against human genes, 0.8 pmol siRNA per well
Duration: 72 h
Read-out: 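Reporter luminescence and viable-cell signal on separate replicate plates, given as percent of non-targeting control and median/MAD z-scores, plus per-cell luciferase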
Reading the numbers: total luciferase, z-score and total luciferase, % of control: higher = more reporter protein produced; luciferase per cell, z-score: higher = more reporter output per viable cell
Hit rule: 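Active when the median/MAD z-score for overall luciferase is greater than 3; a gene was taken forward for validation with new siRNAs if at least two of its three siRNAs passed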
Meaning of the calls: active = raised luciferase; inactive = no rise
The deposit covers about 59,000 reagents; below is an unselected part. About 1,510 of them (2.6%) were called active. 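Calls use total luciferase alone and ignore viability, so some active siRNAs may act by altering cell number.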 The numbers tell different reagents against one gene apart. Not all columns of the deposit are shown.

Gene,reagent,"total luciferase, z-score","total luciferase, % of control","luciferase per cell, z-score",outcome
PYCR2,1,0.547,92.8,0.273,inactive
PYCR2,2,0.226,86.4,-0.496,inactive
PYCR2,3,-0.41,73.7,-0.515,inactive
ACAD8,1,3.51,152,3.16,active
ACAD8,2,2.91,140,1.81,inactive
ACAD8,3,1.91,120,1.51,inactive
PCDHB6,1,-0.722,67.5,-0.0512,inactive
PCDHB6,2,-2.08,40.5,-2.6,inactive
PCDHB6,3,-0.835,65.3,-0.588,inactive
FLVCR1,1,-1.11,59.8,-1.24,inactive
FLVCR1,2,0.0777,83.4,-0.35,inactive
FLVCR1,3,-0.752,66.9,0.256,inactive
OR51L1,1,-1.14,59.3,-1.1,inactive
OR51L1,2,2.01,122,2.16,inactive
OR51L1,3,1.09,104,0.983,inactive
PPP1R7,1,0.217,86.2,-0.506,inactive
PPP1R7,2,-0.29,76.1,0.173,inactive
PPP1R7,3,-0.388,74.2,0.526,inactive
TMC6,1,-0.524,71.5,-0.528,inactive
TMC6,2,-1.28,56.5,-1.25,inactive
TMC6,3,1.22,106,0.549,inactive
APOC4,1,0.00734,82,0.76,inactive
APOC4,2,-0.796,66.1,1.08,inactive
APOC4,3,1.72,116,1.24,inactive
SF3B4,1,3.27,147,5.77,active
SF3B4,2,-0.124,79.4,1.28,inactive
SF3B4,3,3.38,149,4.15,active
TDRD9,1,0.0405,82.7,-0.233,inactive
TDRD9,2,-0.354,74.8,-1.27,inactive
TDRD9,3,-0.174,78.4,1.22,inactive
AQP2,1,-1.19,58.3,-1.1,inactive
AQP2,2,-0.416,73.6,-1.43,inactive
AQP2,3,0.481,91.5,0.198,inactive
U2AF1L4,1,2.15,125,1.39,inactive
U2AF1L4,2,0.204,86,-0.602,inactive
U2AF1L4,3,-0.186,78.2,-0.624,inactive
CABYR,1,0.649,94.8,1.11,inactive
CABYR,2,-0.805,65.9,-0.904,inactive
CABYR,3,0.648,94.8,0.929,inactive
ZNF519,1,-1.35,54.9,-0.252,inactive
ZNF519,2,1.58,113,1.99,inactive
ZNF519,3,6.28,207,4.17,active
SLAMF1,1,2.91,140,1.58,inactive
SLAMF1,2,0.638,94.6,0.652,inactive
SLAMF1,3,-1.82,45.7,-1.14,inactive
CCNJ,1,0.301,87.9,-0.216,inactive
CCNJ,2,0.716,96.1,0.706,inactive
CCNJ,3,-0.358,74.8,-0.29,inactive
CD28,1,0.743,96.7,0.462,inactive
CD28,2,-0.401,73.9,0.408,inactive
CD28,3,-1.37,54.6,-1.54,inactive
EDEM3,1,-0.594,70.1,-0.635,inactive
EDEM3,2,1.4,110,1.69,inactive
EDEM3,3,-1.37,54.6,-1.56,inactive
HLF,1,-0.173,78.4,-0.593,inactive
HLF,2,-0.0481,80.9,-0.415,inactive
HLF,3,0.968,101,0.366,inactive
